# Source: the supplement of paper PMC8728848
# The list shows a part of the results.
# Columns and labels:
# Experiment in all cases: glycan array binding signal (z-score within array); higher = stronger binding
# Conditions in all cases: glycan notation: IUPAC condensed, linker removed
# [1] = tested on: Fuc(a1-2)Gal(b1-3)GalNAc(a1-3)[Fuc(a1-2)]Gal(b1-4)GlcNAc
# Procedure, shortened: (§1)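 The binding signal is a Z-score computed within each array and averaged over linkers. Arrays of the same protein sequence at different concentrations or buffers were also averaged together. Data originate from 3228 arrays in the Consortium for Functional Glycomics database, kept only where the protein sequence was available.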
# [2] = tested on: Fuc(a1-2)Gal(b1-3)GalNAc(a1-3)[Fuc(a1-2)]Gal(b1-4)Glc
# Procedure, shortened: as §1
# [3] = tested on: Fuc(a1-2)Gal(b1-3)GalNAc(b1-3)Gal(a1-4)Gal(b1-4)Glc
# Procedure, shortened: as §1
# [4] = tested on: Fuc(a1-2)Gal(b1-3)GalNAc(b1-3)Gal
# Procedure, shortened: as §1
# [5] = tested on: Fuc(a1-2)Gal(b1-3)GalNAc(b1-4)[Neu5Ac(a2-3)]Gal(b1-4)Glc
# Procedure, shortened: as §1
# Fuc(a1-2)Gal(b1-3)GalNAc = tested on: Fuc(a1-2)Gal(b1-3)GalNAc
# Procedure, shortened: as §1
# [6] = tested on: Fuc(a1-2)Gal(b1-3)GlcNAc(b1-2)Man(a1-3)[Fuc(a1-2)Gal(b1-3)GlcNAc(b1-2)Man(a1-6)]Man(b1-4)GlcNAc(b1-4)GlcNAc
# Procedure, shortened: as §1
# [7] = tested on: Fuc(a1-2)Gal(b1-3)GlcNAc(b1-2)Man(a1-3)[Fuc(a1-2)Gal(b1-3)GlcNAc(b1-2)Man(a1-6)]Man(b1-4)GlcNAc(b1-4)[Fuc(a1-6)]GlcNAc
# Procedure, shortened: as §1
# [8] = tested on: Fuc(a1-2)Gal(b1-3)GlcNAc(b1-3)Gal(b1-4)Glc
# Procedure, shortened: as §1
# [9] = tested on: Fuc(a1-2)Gal(b1-3)GlcNAc(b1-3)GalNAc
# Procedure, shortened: as §1
# [10] = tested on: Fuc(a1-2)Gal(b1-3)GlcNAc(b1-3)[Fuc(a1-2)Gal(b1-3)GlcNAc(b1-6)]GalNAc
# Procedure, shortened: as §1
# [11] = tested on: Fuc(a1-2)Gal(b1-3)GlcNAc(b1-3)[Fuc(a1-3)[Gal(b1-4)]GlcNAc(b1-6)]Gal(b1-4)Glc
# Procedure, shortened: as §1
# [12] = tested on: Fuc(a1-2)Gal(b1-3)GlcNAc(b1-3)[Gal(b1-4)GlcNAc(b1-6)]Gal(b1-4)Glc
# Procedure, shortened: as §1
# [13] = tested on: Fuc(a1-2)Gal(b1-3)GlcNAc(b1-3)[Neu5Ac(a2-6)Gal(b1-4)GlcNAc(b1-6)]Gal(b1-4)Glc
# Procedure, shortened: as §1
# [14] = tested on: Fuc(a1-2)Gal(b1-3)GlcNAc6S
# Procedure, shortened: as §1
# Fuc(a1-2)Gal(b1-3)GlcNAc = tested on: Fuc(a1-2)Gal(b1-3)GlcNAc
# Procedure, shortened: as §1
# [15] = tested on: Fuc(a1-2)Gal(b1-3)[Fuc(a1-4)]GlcNAc(b1-2)Man(a1-3)[Fuc(a1-2)Gal(b1-3)[Fuc(a1-4)]GlcNAc(b1-2)Man(a1-6)]Man(b1-4)GlcNAc(b1-4)GlcNAc
# Procedure, shortened: as §1
# [16] = tested on: Fuc(a1-2)Gal(b1-3)[Fuc(a1-4)]GlcNAc(b1-2)Man(a1-6)[Fuc(a1-2)Gal(b1-3)[Fuc(a1-4)]GlcNAc(b1-2)Man(a1-3)]Man(b1-4)GlcNAc(b1-4)[Fuc(a1-6)]GlcNAc
# Procedure, shortened: as §1
# [17] = tested on: Fuc(a1-2)Gal(b1-3)[Fuc(a1-4)]GlcNAc(b1-3)[Fuc(a1-3)[Gal(b1-4)]GlcNAc(b1-6)]Gal(b1-4)Glc
# Procedure, shortened: as §1
# [18] = tested on: Fuc(a1-2)Gal(b1-3)[Fuc(a1-4)]GlcNAc(b1-3)[Gal(b1-4)GlcNAc(b1-6)]Gal(b1-4)Glc
# Procedure, shortened: as §1
# [19] = tested on: Fuc(a1-2)Gal(b1-3)[Fuc(a1-4)]GlcNAc
# Procedure, shortened: as §1
# Fuc(a1-2)Gal(b1-4)Glc6S = tested on: Fuc(a1-2)Gal(b1-4)Glc6S
# Procedure, shortened: as §1
# [20] = tested on: Fuc(a1-2)Gal(b1-4)GlcNAc(b1-2)Man(a1-3)[Fuc(a1-2)Gal(b1-4)GlcNAc(b1-2)Man(a1-6)]Man(b1-4)GlcNAc(b1-4)GlcNAc
# Procedure, shortened: as §1
# [21] = tested on: Fuc(a1-2)Gal(b1-4)GlcNAc(b1-2)Man(a1-3)[Fuc(a1-2)Gal(b1-4)GlcNAc(b1-2)Man(a1-6)]Man(b1-4)GlcNAc(b1-4)[Fuc(a1-6)]GlcNAc
# Procedure, shortened: as §1
# [22] = tested on: Fuc(a1-2)Gal(b1-4)GlcNAc(b1-2)Man
# Procedure, shortened: as §1
# [23] = tested on: Fuc(a1-2)Gal(b1-4)GlcNAc(b1-2)[Fuc(a1-2)Gal(b1-4)GlcNAc(b1-4)]Man(a1-3)[Fuc(a1-2)Gal(b1-4)GlcNAc(b1-2)Man(a1-6)]Man(b1-4)GlcNAc(b1-4)GlcNAc
# Procedure, shortened: as §1
# [24] = tested on: Fuc(a1-2)Gal(b1-4)GlcNAc(b1-3)Gal(b1-4)GlcNAc(b1-3)Gal(b1-4)GlcNAc
# Procedure, shortened: as §1
# [25] = tested on: Fuc(a1-2)Gal(b1-4)GlcNAc(b1-3)Gal(b1-4)GlcNAc
# Procedure, shortened: as §1
# [26] = tested on: Fuc(a1-2)Gal(b1-4)GlcNAc(b1-3)GalNAc
# Procedure, shortened: as §1
# [27] = tested on: Fuc(a1-2)Gal(b1-4)GlcNAc(b1-3)[Fuc(a1-2)Gal(b1-4)GlcNAc(b1-6)]GalNAc
# Procedure, shortened: as §1
# [28] = tested on: Fuc(a1-2)Gal(b1-4)GlcNAc(b1-6)GalNAc
# Procedure, shortened: as §1
# [29] = tested on: Fuc(a1-2)Gal(b1-4)GlcNAc6S
# Procedure, shortened: as §1
# Fuc(a1-2)Gal(b1-4)GlcNAc = tested on: Fuc(a1-2)Gal(b1-4)GlcNAc
# Procedure, shortened: as §1
# Fuc(a1-2)Gal(b1-4)Glc = tested on: Fuc(a1-2)Gal(b1-4)Glc
# Procedure, shortened: as §1
# [30] = tested on: Fuc(a1-2)Gal(b1-4)[Fuc(a1-3)]GlcNAc(b1-2)Man(a1-3)[Fuc(a1-2)Gal(b1-4)[Fuc(a1-3)]GlcNAc(b1-2)Man(a1-6)]Man(b1-4)GlcNAc(b1-4)GlcNAc
# Procedure, shortened: as §1
# [31] = tested on: Fuc(a1-2)Gal(b1-4)[Fuc(a1-3)]GlcNAc(b1-2)Man(a1-6)[Fuc(a1-2)Gal(b1-4)[Fuc(a1-3)]GlcNAc(b1-2)Man(a1-3)]Man(b1-4)GlcNAc(b1-4)[Fuc(a1-6)]GlcNAc
# Procedure, shortened: as §1
# [32] = tested on: Fuc(a1-2)Gal(b1-4)[Fuc(a1-3)]GlcNAc(b1-2)[Fuc(a1-2)Gal(b1-4)[Fuc(a1-3)]GlcNAc(b1-4)]Man(a1-3)[Fuc(a1-2)Gal(b1-4)[Fuc(a1-3)]GlcNAc(b1-2)Man(a1-6)]Man(b1-4)GlcNAc(b1-4)GlcNAc
# Procedure, shortened: as §1
# [33] = tested on: Fuc(a1-2)Gal(b1-4)[Fuc(a1-3)]GlcNAc(b1-3)Gal(b1-4)[Fuc(a1-3)]GlcNAc(b1-3)Gal(b1-4)[Fuc(a1-3)]GlcNAc
# Procedure, shortened: as §1
# [34] = tested on: Fuc(a1-2)Gal(b1-4)[Fuc(a1-3)]GlcNAc(b1-3)Gal(b1-4)[Fuc(a1-3)]GlcNAc
# Procedure, shortened: as §1
# [35] = tested on: Fuc(a1-2)Gal(b1-4)[Fuc(a1-3)]GlcNAc(b1-3)GalNAc
# Procedure, shortened: as §1
# [36] = tested on: Fuc(a1-2)Gal(b1-4)[Fuc(a1-3)]GlcNAc(b1-3)[Neu5Ac(a2-6)Gal(b1-4)GlcNAc(b1-6)]Gal(b1-4)Glc
# Procedure, shortened: as §1
# [37] = tested on: Fuc(a1-2)Gal(b1-4)[Fuc(a1-3)]GlcNAc
# Procedure, shortened: as §1
# [38] = tested on: Fuc(a1-2)Gal6S(b1-3)GlcNAc6S
# Procedure, shortened: as §1
# [39] = tested on: Fuc(a1-2)Gal6S(b1-3)GlcNAc
# Procedure, shortened: as §1
# [40] = tested on: Fuc(a1-2)Gal6S(b1-4)Glc6S
# Procedure, shortened: as §1
# [41] = tested on: Fuc(a1-2)Gal6S(b1-4)GlcNAc
# Procedure, shortened: as §1
# Fuc(a1-2)Gal6S(b1-4)Glc = tested on: Fuc(a1-2)Gal6S(b1-4)Glc
# Procedure, shortened: as §1
# Fuc(a1-2)Gal = tested on: Fuc(a1-2)Gal
# Procedure, shortened: as §1
# [42] = tested on: Fuc(a1-2)[Gal(a1-3)]Gal(b1-3)GalNAc
# Procedure, shortened: as §1
# [43] = tested on: Fuc(a1-2)[Gal(a1-3)]Gal(b1-3)GlcNAc(b1-2)Man(a1-3)[Fuc(a1-2)[Gal(a1-3)]Gal(b1-3)GlcNAc(b1-2)Man(a1-6)]Man(b1-4)GlcNAc(b1-4)GlcNAc
# Procedure, shortened: as §1
# [44] = tested on: Fuc(a1-2)[Gal(a1-3)]Gal(b1-3)GlcNAc(b1-2)Man(a1-3)[Fuc(a1-2)[Gal(a1-3)]Gal(b1-3)GlcNAc(b1-2)Man(a1-6)]Man(b1-4)GlcNAc(b1-4)[Fuc(a1-6)]GlcNAc
# Procedure, shortened: as §1
substance,measurement,setting,value
"Wza (Escherichia coli), P0A930",glycan array binding signal (z-score),[1],-0.564
same,glycan array binding signal (z-score),[2],-0.261
same,glycan array binding signal (z-score),[3],-1.05
same,glycan array binding signal (z-score),[4],-0.039
same,glycan array binding signal (z-score),[5],0.486
same,glycan array binding signal (z-score),Fuc(a1-2)Gal(b1-3)GalNAc,0.144
same,glycan array binding signal (z-score),[6],1.43
same,glycan array binding signal (z-score),[7],-1.24
same,glycan array binding signal (z-score),[8],0.374
same,glycan array binding signal (z-score),[9],0.137
same,glycan array binding signal (z-score),[10],0.543
same,glycan array binding signal (z-score),[11],-0.65
same,glycan array binding signal (z-score),[12],0.121
same,glycan array binding signal (z-score),[13],-0.521
same,glycan array binding signal (z-score),[14],-0.281
same,glycan array binding signal (z-score),Fuc(a1-2)Gal(b1-3)GlcNAc,0.769
same,glycan array binding signal (z-score),[15],1.49
same,glycan array binding signal (z-score),[16],1.21
same,glycan array binding signal (z-score),[17],-0.515
same,glycan array binding signal (z-score),[18],0.314
same,glycan array binding signal (z-score),[19],-1.04
same,glycan array binding signal (z-score),Fuc(a1-2)Gal(b1-4)Glc6S,-0.326
same,glycan array binding signal (z-score),[20],0.059
same,glycan array binding signal (z-score),[21],-0.368
same,glycan array binding signal (z-score),[22],0.94
same,glycan array binding signal (z-score),[23],0.441
same,glycan array binding signal (z-score),[24],-2.01
same,glycan array binding signal (z-score),[25],-0.32
same,glycan array binding signal (z-score),[26],-0.551
same,glycan array binding signal (z-score),[27],0.214
same,glycan array binding signal (z-score),[28],0.01
same,glycan array binding signal (z-score),[29],1.03
same,glycan array binding signal (z-score),Fuc(a1-2)Gal(b1-4)GlcNAc,-0.146
same,glycan array binding signal (z-score),Fuc(a1-2)Gal(b1-4)Glc,1.06
same,glycan array binding signal (z-score),[30],0.425
same,glycan array binding signal (z-score),[31],0.281
same,glycan array binding signal (z-score),[32],1.08
same,glycan array binding signal (z-score),[33],-0.725
same,glycan array binding signal (z-score),[34],-0.207
same,glycan array binding signal (z-score),[35],0.959
same,glycan array binding signal (z-score),[36],1.82
same,glycan array binding signal (z-score),[37],-0.629
same,glycan array binding signal (z-score),[38],0.429
same,glycan array binding signal (z-score),[39],1.29
same,glycan array binding signal (z-score),[40],1.05
same,glycan array binding signal (z-score),[41],0.807
same,glycan array binding signal (z-score),Fuc(a1-2)Gal6S(b1-4)Glc,0.28
same,glycan array binding signal (z-score),Fuc(a1-2)Gal,-0.106
same,glycan array binding signal (z-score),[42],0.911
same,glycan array binding signal (z-score),[43],-0.383
same,glycan array binding signal (z-score),[44],0.523

# 2 entries from above, bar-delimited:
substance | measurement | setting | value
Wza (Escherichia coli), P0A930 | glycan array binding signal (z-score) | [12] | 0.121
same | glycan array binding signal (z-score) | [13] | -0.521
